Data reported in PubChem BioAssay AID1347076 (National Center for Advancing Translational Sciences (NCATS), 2019).
The campaign covered roughly 400,000 compounds. About 13,000 (3.2%) were called active. This list was built around the results that the source calls inconclusive (neither active nor inactive); the mix of calls is not that of the screen. The call rests on the fitted dose curve; in most records, active means well fitted cell-killing curve with a large enough effect; inconclusive means small, poorly fitted or top-dose-only effect, or effect the other way; inactive means flat fitted curve, though single readings scatter. A potency beside an inconclusive call is a rough fit, not a confirmed value.

Experiment: qHTS assay for MDR1-selective chemotherapeutics: Primary screen using the drug-selected MDR subline cells KB-V1; further: nearly all actives have a fitted effect of over 60% in size
Settings: KB-V1 MDR cells viability, CellTiter-Glo, 72 h; activity change, negative = cytotoxicity: at 46.1 µM (top of the series)
Summary of the method: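 Following 72 h at 37 degrees C with compound, KB-V1 cell viability was read by CellTiter-Glo luminescence, medium being phenol-red-free DMEM plus 10% FBS; concentration-response parameters came from normalized, curve-fitted qHTS data.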
On the % scale 0 is the no-effect control and ±100 the full control effect; potency means the concentration at half of the fitted maximal effect.

Structure (SMILES)	activity change, negative = cytotoxicity	Potency
CC(C)Sc1nc(SCC(=O)NCc2ccco2)c2c3c(sc2n1)COC(C)(C)C3	inactive: -17%	
CCN1CCN(c2nc3c(C)cccn3c(=O)c2/C=C(\C#N)S(=O)(=O)c2ccccc2)CC1		inconclusive: 14.6 µM [cytotoxic, partial curve, poor fit]
C[C@H]1CN([C@@H](C)CO)C(=O)c2cccc(NC(=O)Nc3ccc(C(F)(F)F)cc3)c2O[C@@H]1CN(C)S(=O)(=O)c1ccc(Cl)cc1		inconclusive: 29.1 µM [cytotoxic, single point]
O=C(NCc1ccccc1Cl)c1cccc2c1C(=O)c1ccc(-c3ccc(OC(F)(F)F)cc3)cc1S2(=O)=O		inconclusive: 16.4 µM [cytotoxic, single point]
CCOP(=O)(OCC)c1nc(/C=C/c2ccccc2)oc1NCc1ccccc1		inconclusive: 20.6 µM [cytotoxic, partial curve, poor fit]
COc1cccc(CNC(=O)c2ccc(CS(=O)Cc3ccccc3Cl)o2)c1 (stereo unspecified)		inconclusive: 18.4 µM [cytotoxic, single point]
CC1CN(C(=O)Nc2ccc(C(=O)NCc3ccccc3F)cc2)c2ccccc2S1 (stereo unspecified)	inactive: 2.2%	
Cc1ccc(C)c(CN2CCC(CNC(=O)Nc3cccc(Cl)c3C)CC2)c1		inconclusive: 18.4 µM [cytotoxic, partial curve]
Cc1nc2ncnn2c(N2CCCC(C(=O)Nc3ccccc3Br)C2)c1C (stereo unspecified)		active: 10.3 µM
CCOc1ccc(C(C(=O)NCC2CCCO2)N(Cc2cccs2)C(=O)c2snc(C(N)=O)c2N)cc1 (stereo unspecified)		inconclusive: 10.3 µM [cytotoxic, partial curve]
Cc1ccc(S(=O)(=O)N2CCN(C(=O)COC(=O)CNC(=O)c3ccccc3F)CC2)c(C)c1		inconclusive: 29.1 µM [cytotoxic, single point]
CCn1cc(C2=NC(c3ccccc3)CO2)c2ccccc21 (stereo unspecified)		inconclusive: 32.6 µM [cytotoxic, single point]
CC(=O)Nc1ccc(NC(=O)c2cc(-n3cnnc3)ccc2Cl)cc1		inconclusive: 29.1 µM [rising, single point]
COCCn1c(=NC(=O)CSC(C)=O)sc2cc(OC)ccc21	inactive: -22.8%	
CC1=CC(C)(C)N(C(=O)c2ccc(F)cc2)c2cc3c(cc21)OCO3		active: 13 µM
CC1=C(C(=O)OCC2CCCO2)C(c2ccccc2)C2=C(CCCC2=O)N1 (stereo unspecified)	inactive: 0.333%	
COc1cccc(CN(C)C(=O)Cc2c[nH]c3ccccc23)c1OC		inconclusive: 20.6 µM [cytotoxic, single point]
CCOc1cccc2cc(-c3nnc(NCc4ccc5c(c4)OCO5)s3)c(=O)oc12		inconclusive: 8.2 µM [cytotoxic, partial curve]
CCn1nc(C)c(CNC(=O)c2cc(COc3ccccc3SC)on2)c1C		inconclusive: 29.1 µM [cytotoxic, single point]
NC(=O)C1CCN(C(=O)Nc2csc3ccccc23)CC1	inactive: 0%	
CC(C)c1csc(CN2CCC(C(=O)Nc3cccc(-c4ccco4)c3)CC2)n1		inconclusive: 9.2 µM [cytotoxic, partial curve]

Look-ups from the results shown.
Under Potency, `COc1cccc(CNC(=O)c2ccc(CS(=O)Cc3ccccc3Cl)o2)c1` (stereo unspecified) has inconclusive: 18.4 µM [cytotoxic, single point]
Under Potency, `CCn1cc(C2=NC(c3ccccc3)CO2)c2ccccc21` (stereo unspecified) has inconclusive: 32.6 µM [cytotoxic, single point]
Under Potency, `Cc1nc2ncnn2c(N2CCCC(C(=O)Nc3ccccc3Br)C2)c1C` (stereo unspecified) has active: 10.3 µM
Under Potency, `C[C@H]1CN([C@@H](C)CO)C(=O)c2cccc(NC(=O)Nc3ccc(C(F)(F)F)cc3)c2O[C@@H]1CN(C)S(=O)(=O)c1ccc(Cl)cc1` has inconclusive: 29.1 µM [cytotoxic, single point]

Additional entries

Structure (SMILES)	activity change, negative = cytotoxicity	Potency
O=C(Cc1cn(-c2ccccc2)nc1-c1ccccc1)N1CCCCC1		inconclusive: 20.6 µM [rising, single point]
COc1ccc(CCN=C(N)NS(=O)(=O)c2ccc(C)c(C)c2)cc1OC		inconclusive: 29.1 µM [rising, single point]
Cc1noc(C)c1COc1ccccc1C(=O)NNC(=O)C(C)Oc1ccccc1F (stereo unspecified)		inconclusive: 8.2 µM [cytotoxic, partial curve]
C[C@@H]1CN([C@H](C)CO)C(=O)c2cc(Br)cnc2O[C@@H]1CN(C)C(=O)c1cccc(F)c1	inactive: 0%	
Cc1nnc(N2C(=O)C(O)=C(C(=O)c3ccco3)C2c2ccc(C(C)(C)C)cc2)s1 (stereo unspecified)	inactive: 0.983%	
Cc1ccc(NC(=O)/C(=C\c2cccc([N+](=O)[O-])c2)NC(=O)c2cccs2)cc1		inconclusive: 5.17 µM [cytotoxic, partial curve]
O=C(NC1CCCCC1)C(c1ccncc1)n1c(=O)c(-c2cc3ccccc3[nH]2)nc2ccccc21 (stereo unspecified)		active: 16.4 µM
Cc1cc(C)c(NC(=O)/C(=C/c2ccccc2)c2ccccc2)c(C)c1		inconclusive: 20.6 µM [cytotoxic, partial curve, poor fit]
CC(=O)c1ccc(NC(=O)Nc2ccc3snnc3c2)cc1		inconclusive: 8.2 µM [rising, partial curve]
CC1(c2nnnn2-c2ccc3c(c2)OCCO3)CCC(=O)N1CC(F)(F)F (stereo unspecified)	inactive: -2.14%	
CC1CCCCN1S(=O)(=O)c1ccccc1[N+](=O)[O-] (stereo unspecified)		inconclusive: 29.1 µM [cytotoxic, single point]
O=C1c2ccccc2C(=O)c2c1cccc2N1CCN(Cc2ccccc2)CC1		active: 18.4 µM
COc1cccc(-c2nc(S(=O)(=O)c3ccc(C)cc3)c(N3CCCCCC3)o2)c1		inconclusive: 2.59 µM [cytotoxic, full curve, poor fit]
COc1ccc2c(CC(=O)Nc3ccc(OC)c(S(=O)(=O)N4CCOCC4)c3)coc2c1		inconclusive: 14.6 µM [cytotoxic, partial curve, poor fit]
O=C1OCCN1C(=O)[C@H]1[C@H](c2ccc(F)cc2)C(c2cccc(Cl)c2)=NN1c1ccccc1	inactive: -12.2%	
CCOC(=O)c1ccc(N2C(=O)c3n[nH]c(-c4ccco4)c3C2c2ccc(OC)cc2OC)cc1 (stereo unspecified)		inconclusive: 25.9 µM [cytotoxic, partial curve, poor fit]
CCN(CC)CCCN(C(=O)c1ccc(Br)cc1)c1nc(-c2ccc(OC)cc2)cs1		inconclusive: 0.731 µM [rising, full curve, poor fit]
O=C(CN1CCN(c2ccccc2Cl)CC1)NC1CCCc2ccccc21 (stereo unspecified)		active: 9.2 µM
C[C@@H]1CN([C@H](C)CO)C(=O)Cc2cc(NS(=O)(=O)c3cn(C)cn3)ccc2O[C@H]1CN(C)S(=O)(=O)c1ccc(Cl)cc1	inactive: 0.0002%	
O=C(/C=C/c1ccc[nH]1)c1ccc(F)cc1	inactive: -10.3%	
